“And” between values parts separate entries of the source, which are not always exact repeats. Equal entries are not always repeated. The list shows a part of the results. Single values are uncertain here, since repeats match poorly.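 HEK293T cells were given each compound shortly before transfection with a reporter in which red mCherry is followed by the SARS-CoV-2 frameshift element and then GFP in the −1 frame, so GFP appears only after frameshifting.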

The test system of the assay is HEK293T. The assay is described as follows: percent viability (nuclei count) relative to control; higher = more viable cells. As to conditions: 10 µM; 24 h.
For the molecule `Cc1onc(NS(=O)(=O)c2ccc(N)cc2)c1C` [sulfatroxazole], the percent viability stood at 370%. For the molecule `C[C@H](CCC(=O)O)[C@H]1CC[C@H]2[C@@H]3C(=O)C[C@@H]4CC(=O)CC[C@]4(C)[C@H]3CC(=O)[C@]12C` [dehydrocholic acid], the percent viability stood at 90.3%. As to `Cc1cn([C@H]2C[C@H](N=[N+]=[N-])[C@@H](CO)O2)c(=O)[nH]c1=O` [zidovudine], the percent viability is 366% and 218%. Under `O=C(O)CCSCC(=O)O` [danosteine] stands 167%. For `Clc1ccc(COC(Cn2ccnc2)c2ccc(Cl)cc2Cl)cc1` (centres undefined), the percent viability came to 182%. Under `C[C@H]1O[C@@H](O[C@H]2[C@@H](O)C[C@H](O[C@H]3[C@@H](O)C[C@H](O[C@H]4CC[C@@]5(C)[C@H](CC[C@@H]6[C@@H]5CC[C@]5(C)[C@@H](C7=CC(=O)OC7)CC[C@]65O)C4)O[C@@H]3C)O[C@@H]2C)C[C@H](O)[C@@H]1O` [digitoxin] stands 6.95%; under `CCCCc1nc(Cl)c(CO)n1Cc1ccc(-c2ccccc2-c2nnn[nH]2)cc1`, 321%. Under `CS(=O)(=O)c1cc(C2(NC(=O)c3cncc4c3cnn4-c3ccc(F)cc3)CC2)ccn1` stands 43.2%. With `CCCCCNC(=O)c1coc([C@H]2[C@@H](Cc3ccccc3CCC(=O)O)[C@@H]3CC[C@H]2O3)n1` [ifetroban] the figure was 103%; with `CN1C(C(=O)Nc2ccccn2)=C(O)c2sc(Cl)cc2S1(=O)=O` [Lorcam], 200%; with `O=C(O)c1cc(=O)[nH]c(=O)[nH]1` [orotic acid], 369%.

As to `O=C(O)CNC(=O)CNC(=O)CNC(=O)CSC(=O)c1ccccc1` [betiatide], the percent viability came out at 70.8%.

As for `CCCC(=O)O[C@]1(C(=O)CO)CC[C@H]2[C@@H]3CCC4=CC(=O)CC[C@]4(C)[C@H]3[C@@H](O)C[C@@]21C`, the percent viability amounted to 326%.

For `C1N2CN3CN1CN(C2)C3` [methenamine], the percent viability is 153%. Under `Cc1onc(-c2ccccc2Cl)c1C(=O)N[C@@H]1C(=O)N2[C@@H]1SC(C)(C)[C@@H]2C(=O)O` stands 133%; under `CCCCN(CCCC)CC(O)c1cc(Cl)cc2c1-c1ccc(Cl)cc1/C2=C/c1ccc(Cl)cc1` (centres undefined) [lumefantrine], 233%; under `CC1(C)[C@@H]2CC[C@@]1(C)C(=O)C2`, 368%. In the case of `CCN1CCCC1CNC(=O)c1cc(S(=O)(=O)CC)c(N)cc1OC` (centres undefined) [amisulpride], the percent viability was 306% and 161%. Turning to `COc1cc(N)c(Cl)cc1C(=O)N1CCN(Cc2ccc3c(c2)OCO3)CC1` [peralopride], the percent viability was determined as 219%.

`COc1ccc2c(O[C@@H]3C[C@H]4C(=O)N[C@]5(C(=O)NS(=O)(=O)C6CC6)C[C@H]5/C=C\CCCCN(C)C(=O)[C@@H]4C3)cc(-c3nc(C(C)C)cs3)nc2c1C` [Simeprevir]: the percent viability was 261%.

As to `CC(C)(N)C(=O)N[C@H](COCc1ccccc1)C(=O)N1CCC2(CC1)CN(S(C)(=O)=O)c1ccccc12` [ibutamoren], the percent viability turned out to be 216%. Take `CCOC(=O)O[C@]1(C(=O)OCCl)CC[C@H]2[C@@H]3CCC4=CC(=O)C=C[C@]4(C)[C@H]3[C@@H](O)C[C@@]21C` [Loteprednol]: the percent viability worked out at 249%.

Regarding `CSc1ccc2c(c1)C(N1CCN(C)CC1)Cc1ccccc1S2` (centres undefined) [metitepine], the percent viability was 222%. With `CCCc1ncc(C(=O)O)s1` [tizoprolic acid] the figure was 105%.
